The source of these data is publication PMC6422423, “Constitutively active BRS3 is a genuinely orphan GPCR in placental mammals” (PLoS Biology, 2019).

Results are given in words; binding and its absence hold for the method and conditions named.

The target in assay [1] is T1, human bombesin receptor subtype-3 (human) (UniProt P32247).
T1 sequence: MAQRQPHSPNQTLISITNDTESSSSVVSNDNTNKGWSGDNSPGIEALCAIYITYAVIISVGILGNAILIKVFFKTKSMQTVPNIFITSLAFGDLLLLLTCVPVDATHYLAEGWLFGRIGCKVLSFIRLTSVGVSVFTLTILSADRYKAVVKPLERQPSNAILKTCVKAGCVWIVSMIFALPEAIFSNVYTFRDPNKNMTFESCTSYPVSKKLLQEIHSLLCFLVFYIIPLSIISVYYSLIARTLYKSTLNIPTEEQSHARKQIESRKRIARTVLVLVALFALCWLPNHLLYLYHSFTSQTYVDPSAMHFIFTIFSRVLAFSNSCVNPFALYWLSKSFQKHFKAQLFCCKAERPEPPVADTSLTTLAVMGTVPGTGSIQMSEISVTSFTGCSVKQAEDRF
Briefly: radioligand binding; displacement of 50 pM [125I]-Tyr42-GRP by unlabeled peptide on disaggregated transfected HEK293 cells; 1 h at 21°C; 24.5 mM HEPES pH 7.4, 98 mM NaCl; bound tracer separated by centrifugation; only the binder purified.

The target of assay [2] is T2, mouse bombesin receptor subtype-3 (mouse) (UniProt O54798).
T2 sequence: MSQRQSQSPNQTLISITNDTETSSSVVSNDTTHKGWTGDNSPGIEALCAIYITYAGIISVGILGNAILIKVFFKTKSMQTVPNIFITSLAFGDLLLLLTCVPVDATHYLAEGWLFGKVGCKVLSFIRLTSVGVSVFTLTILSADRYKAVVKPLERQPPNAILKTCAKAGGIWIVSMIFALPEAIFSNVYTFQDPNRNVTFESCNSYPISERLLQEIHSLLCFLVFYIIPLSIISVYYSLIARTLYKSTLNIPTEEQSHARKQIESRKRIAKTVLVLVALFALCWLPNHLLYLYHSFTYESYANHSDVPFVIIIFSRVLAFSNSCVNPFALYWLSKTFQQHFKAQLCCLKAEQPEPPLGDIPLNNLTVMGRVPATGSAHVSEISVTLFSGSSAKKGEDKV
Described as above.

As to APLQPGGSPALTKIYPRGSHWAVGHLM [gastrin-releasing peptide, unlabeled ligand peptide of the radioligand binding assays], the binding result in assay [1] and in assay [2] was “no binding (tested: Ki > 1,000 nM)” each time.
